# In the supplement of paper PMC8166895:
# Where a name gives a salt, the structure may show the parent alone. This is one part of the list. Most values lie at the level of the controls, where differences are scatter.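 Melting temperature was read by differential scanning fluorimetry in a single-replicate pilot screen of a library of approved drugs and clinical or known-target compounds. Compounds raising the melting point by at least 2 °C were the top stabilizing hits, and negative shifts mean destabilization.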
# Tested on: SARS-CoV-2 main protease (Mpro, nsp5)
# Experiment: thermal shift ΔTm of Mpro relative to plate average Tm; higher = stronger thermal stabilization of Mpro (binding)
# Conditions: 10 µM; protein concentration 1 µM
row,SMILES,thermal shift ΔTm of Mpro [°C]
1,CCC(COC(=O)c1cc(OC)c(OC)c(OC)c1)(c1ccccc1)N(C)C (stereo not drawn) [Trimebutine],0.11
2,CCC(COC(=O)c1cc(OC)c(OC)c(OC)c1)(c1ccccc1)N(C)C (stereo not drawn) [Trimebutine maleate],-0.243
3,CCn1c(=O)c(-c2ccc(-c3cncs3)cc2Cl)cc2cnc(Nc3ccc(N4CCN(C)CC4)cc3)nc21,0.187
4,O=C1C(CC[S+]([O-])c2ccccc2)C(=O)N(c2ccccc2)N1c1ccccc1 (stereo not drawn) [Sulfinpyrazone],0.165
5,O=C1NC(=O)/C(=C/c2ccc(-c3ccc(F)cc3O)o2)S1,0.642
6,CC(C)CCN1c2nc(Nc3cc(F)c(O)c(F)c3)ncc2N(C)C(=O)C1C (stereo not drawn),-0.205
7,Cc1cnc(Nc2ccc(N3CCN(C)CC3)cc2)nc1Nc1cccc(S(=O)(=O)NC(C)(C)C)c1,-0.234
8,OC[C@@H](O)[C@@H](O)CO [Erythritol],-0.0458
9,CC(=O)Oc1cc(C(F)(F)F)ccc1C(=O)O [Triflusal],-0.0648
10,CC(=O)Oc1c(C)cccc1C(=O)O [2-(Acetyloxy)-3-Methylbenzoic Acid],0.178
11,CNC(=O)c1ccc2cc([C@@]3(O)CCn4cncc43)ccc2c1 [TAK-700 (Orteronel)],0.165
12,N=c1ccn2c(n1)O[C@H]1[C@H](O)[C@@H](CO)O[C@H]12 [Cyclocytidine HCl],0.181
13,"O=c1[nH]cc(F)c(=O)[nH]1 [Fluorouracil (5-Fluoracil, 5-FU)]",0.148
14,CCOc1cc(NC(C)=O)ccc1C(=O)OC [Ethopabate],-0.089
15,C[C@]12C=CC(=O)C=C1CC[C@@H]1[C@@H]2[C@@H](O)C[C@@]2(C)[C@H]1CC[C@]2(O)C(=O)CO [Prednisolone],-0.0377
16,O=c1ncn2nc(Sc3ccc(F)cc3F)ccc2c1-c1c(Cl)cccc1Cl,0.14
17,NCCc1c[nH]c2ccc(O)cc12 [Serotonin HCl],-0.521
18,CNC(=O)c1ccccc1Oc1nc(Nc2cc(OC)c(OC)c(OC)c2)ncc1Br,-0.101
19,CC(C)Cc1ccc([C@H](C)C(=O)O)cc1 [Dexibuprofen],0.193
20,CS(=O)(=O)c1ccc([C@@H](O)[C@@H](CO)NC(=O)C(Cl)Cl)cc1 [Thiamphenicol],0.011
21,Cc1cncc(CN2CCC(=C3c4ccc(Cl)cc4CCc4cccnc43)CC2)c1 [Rupatadine Fumarate],-0.175
22,O=C(Nc1cc(Cl)cc(Cl)c1O)c1c(O)c(Cl)cc(Cl)c1Cl [Oxyclozanide],0.314
23,C[C@@H]1CC[C@@]2(NC1)O[C@H]1C[C@H]3[C@@H]4CC=C5C[C@@H](O[C@@H]6O[C@H](CO)[C@@H](O[C@@H]7O[C@@H](C)[C@H](O)[C@@H](O)[C@H]7O)[C@H](O)[C@H]6O[C@@H]6O[C@@H](C)[C@H](O)[C@@H](O)[C@H]6O)CC[C@]5(C)[C@H]4CC[C@]3(C)[C@H]1[C@@H]2C [Solamargine],-0.0416

# Part of the list above, bar-delimited.
row | SMILES | thermal shift ΔTm of Mpro [°C]
13 | O=c1[nH]cc(F)c(=O)[nH]1 [Fluorouracil (5-Fluoracil, 5-FU)] | 0.148
16 | O=c1ncn2nc(Sc3ccc(F)cc3F)ccc2c1-c1c(Cl)cccc1Cl | 0.14
